From patent publication US11491150B2, “Organic compounds” (INTRA-CELLULAR THERAPIES, INC., priority 2017, dated 2022)

Test system: mouse model of diabetes
Test: Nephropathy in streptozotocin mouse model of diabetes (eNOS-/- mice), α7-nAchR blocker
Assay type: in vivo
Conditions: blocker 2 mg/kg i.p. 5 days a week, 10 weeks
Experimental: Normal mice express the α7-nAChR in both the proximal and distal tubule of the kidneys. Tests were conducted to determine the role of the α7-nAchR on the severity of nephropathy in a mouse model of diabetes. Diabetes mellitus (DM) was induced in all mice with streptozotocin (STZ). This test closely mimics diabetic […] in humans. Mice were either given nicotine (DN) in doses of […] in drinking water or tap water with no nicotine for a period of 10 weeks (DT). Targeted disruption of the endothelial nitric oxide synthase gene led to eNOS^-/- knockout in a group of mice to increase susceptibility of STZ in the mice. One group of eNOS^-/- knockout mice was also subjected to targeted disruption of the α7-nAchR gene, which led to eNOS^-/-/α7-nAchR^-/- double knockout mice (DN^-/- and DT^-/-). A separate group of eNOS^-/- mice also received a α7-nAchR blocker (DN+B and DT+B). The blocker used was Compound 17 at a dosage of 2 mg/kg given intraperitoneally for 5 days a week for a period of 10 weeks. Blood pressure was measured by tail-cuff method and urine was collected every 2 weeks for albuminuria.
All mice became diabetic after being administered STZ, and all mice were also hypertensive.

For `NS(=O)(=O)c1ccc(Cn2ncc(C(=O)NCC3CCN(Cc4ccccc4)CC3)n2)cc1` [Compound 17], the “Body Weight” value (DN + B: diabetic eNOS-/- mice on nicotine) was 25 ± 0.5 g and the “Body Weight” value (DT + B: diabetic eNOS-/- mice on tap water) was 26 ± 1.1 g.
